Laboratory results as given in US20230330100A1 (Woolsey Pharmaceuticals, Inc., priority 2022, published 2023).

Key:
[1] = Tasting of fasudil solutions and formulations (bitterness rank, palatability) by tasters/panel; settings: drug in solution, unmasked
[2] = Taste threshold concentration for fasudil; settings: for most people; range accounting for super tasters and normal tasters

Structure (SMILES)	taste of the drug ([1]; listed as fasudil hydrochloride, monohydrochloride hemihydrate)	taste of the drug ([1]; monohydrochloride hemihydrate)	taste threshold concentration [2]	taste of the drug [1]
O=S(=O)(c1cccc2cnccc12)N1CCCNCC1 [fasudil, hexahydro-1-(5-isoquinolinesulfonyl)-1H-1,4-diazepine monohydrochloride hemihydrate]	highly aversive numbing and bitter taste	very aversive, bitter taste	0.1 to 0.4 mg/mL	
O=c1[nH]ccc2c(S(=O)(=O)N3CCCNCC3)cccc12 [hydroxyfasudil]				highly aversive numbing and bitter taste

Counter-ions that a name gives are not always drawn.
